Chains of the proteins cited; added tags and fusions are not shown.
UniProt P87112: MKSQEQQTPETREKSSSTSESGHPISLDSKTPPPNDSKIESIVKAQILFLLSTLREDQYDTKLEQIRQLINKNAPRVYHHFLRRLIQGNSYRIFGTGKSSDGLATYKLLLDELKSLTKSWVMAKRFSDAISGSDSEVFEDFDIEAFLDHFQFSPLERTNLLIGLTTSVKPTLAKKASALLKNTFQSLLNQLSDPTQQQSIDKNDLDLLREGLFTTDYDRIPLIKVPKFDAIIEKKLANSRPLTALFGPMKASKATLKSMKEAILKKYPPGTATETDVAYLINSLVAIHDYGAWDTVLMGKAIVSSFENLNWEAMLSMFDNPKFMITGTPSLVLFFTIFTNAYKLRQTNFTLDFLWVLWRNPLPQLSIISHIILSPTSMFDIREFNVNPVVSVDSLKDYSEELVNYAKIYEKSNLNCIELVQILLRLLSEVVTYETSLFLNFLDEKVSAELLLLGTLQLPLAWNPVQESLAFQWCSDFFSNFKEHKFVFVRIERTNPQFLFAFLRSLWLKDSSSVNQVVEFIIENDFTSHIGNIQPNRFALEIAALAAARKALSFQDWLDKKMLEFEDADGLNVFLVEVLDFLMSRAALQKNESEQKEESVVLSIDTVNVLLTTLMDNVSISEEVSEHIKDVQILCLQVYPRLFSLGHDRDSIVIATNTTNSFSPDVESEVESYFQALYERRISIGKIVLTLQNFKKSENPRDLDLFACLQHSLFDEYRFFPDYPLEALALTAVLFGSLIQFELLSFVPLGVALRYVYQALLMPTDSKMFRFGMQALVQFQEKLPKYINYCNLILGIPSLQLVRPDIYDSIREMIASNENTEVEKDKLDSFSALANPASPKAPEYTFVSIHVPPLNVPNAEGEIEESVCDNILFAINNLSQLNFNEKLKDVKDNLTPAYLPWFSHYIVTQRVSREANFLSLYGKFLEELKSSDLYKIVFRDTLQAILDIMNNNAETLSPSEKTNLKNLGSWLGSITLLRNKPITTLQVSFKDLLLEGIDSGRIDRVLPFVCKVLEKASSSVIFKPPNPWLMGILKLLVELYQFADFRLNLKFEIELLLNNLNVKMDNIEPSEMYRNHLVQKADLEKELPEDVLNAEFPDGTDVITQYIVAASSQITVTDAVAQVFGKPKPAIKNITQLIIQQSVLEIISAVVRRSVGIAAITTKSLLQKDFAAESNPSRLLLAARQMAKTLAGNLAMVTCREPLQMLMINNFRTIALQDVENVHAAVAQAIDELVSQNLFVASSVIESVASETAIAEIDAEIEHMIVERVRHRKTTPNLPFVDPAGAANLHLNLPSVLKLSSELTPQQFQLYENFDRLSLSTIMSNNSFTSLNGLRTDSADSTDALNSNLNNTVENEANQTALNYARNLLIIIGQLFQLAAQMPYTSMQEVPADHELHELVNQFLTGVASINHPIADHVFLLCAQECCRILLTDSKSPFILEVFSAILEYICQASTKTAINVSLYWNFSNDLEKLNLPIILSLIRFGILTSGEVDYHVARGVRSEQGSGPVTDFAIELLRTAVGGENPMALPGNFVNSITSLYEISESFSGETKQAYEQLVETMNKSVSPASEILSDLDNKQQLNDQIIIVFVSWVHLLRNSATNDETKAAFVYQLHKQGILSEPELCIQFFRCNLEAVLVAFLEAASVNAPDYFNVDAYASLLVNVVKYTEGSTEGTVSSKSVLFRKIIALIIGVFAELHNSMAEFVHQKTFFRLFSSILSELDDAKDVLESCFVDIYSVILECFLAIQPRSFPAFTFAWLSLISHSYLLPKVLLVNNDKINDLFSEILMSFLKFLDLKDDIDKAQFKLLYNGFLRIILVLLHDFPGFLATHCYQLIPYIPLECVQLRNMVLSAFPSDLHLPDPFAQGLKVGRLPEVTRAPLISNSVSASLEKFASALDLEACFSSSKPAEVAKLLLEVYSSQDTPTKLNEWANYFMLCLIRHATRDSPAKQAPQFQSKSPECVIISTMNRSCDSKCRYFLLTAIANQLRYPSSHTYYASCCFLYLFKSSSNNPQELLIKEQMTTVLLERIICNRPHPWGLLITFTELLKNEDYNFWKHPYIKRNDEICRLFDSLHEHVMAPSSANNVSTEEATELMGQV

In PMC5120349, “Reconstitution of Targeted Deadenylation by the Ccr4-Not Complex and the YTH Domain Protein Mmi1”:

T1: Rcd1 (TAP-tagged, endogenous, S. pombe) (S. pombe (endogenous in S. pombe)) (UniProt Q92368)
T1 sequence: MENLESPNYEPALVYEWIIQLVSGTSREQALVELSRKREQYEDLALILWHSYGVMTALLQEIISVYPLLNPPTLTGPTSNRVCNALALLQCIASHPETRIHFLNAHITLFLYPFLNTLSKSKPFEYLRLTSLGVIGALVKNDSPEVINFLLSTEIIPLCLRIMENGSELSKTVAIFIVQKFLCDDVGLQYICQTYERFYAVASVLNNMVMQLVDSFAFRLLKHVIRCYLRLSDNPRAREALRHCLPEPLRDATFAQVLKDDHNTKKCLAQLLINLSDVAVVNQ

T2: Caf40 (TAP-tagged, endogenous, S. cerevisiae) (S. cerevisiae (endogenous in S. cerevisiae)) (UniProt P53829)
T2 sequence: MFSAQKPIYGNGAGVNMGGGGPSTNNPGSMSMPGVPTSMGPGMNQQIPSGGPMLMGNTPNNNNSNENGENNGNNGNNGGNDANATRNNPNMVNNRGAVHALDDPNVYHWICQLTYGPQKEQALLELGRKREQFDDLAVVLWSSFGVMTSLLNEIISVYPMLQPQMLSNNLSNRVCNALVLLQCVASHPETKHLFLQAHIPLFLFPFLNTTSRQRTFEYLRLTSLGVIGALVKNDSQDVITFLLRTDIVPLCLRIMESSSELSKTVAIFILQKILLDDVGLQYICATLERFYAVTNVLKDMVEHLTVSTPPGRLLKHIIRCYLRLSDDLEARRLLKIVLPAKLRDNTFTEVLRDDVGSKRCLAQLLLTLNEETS


Columns and labels:
[1] = target: T1, Rcd1 (TAP-tagged, endogenous, S. pombe) (S. pombe (endogenous in S. pombe)); test: affinity purification with mass spectrometry; tandem affinity purification of the endogenous complex from an S. pombe strain with a C-terminal TAP tag on rcd1; SDS-PAGE, Coomassie blue, bands identified by mass spectrometry; Mmi1 interaction not sensitive to RNase treatment
[2] = target: T2, Caf40 (TAP-tagged, endogenous, S. cerevisiae) (S. cerevisiae (endogenous in S. cerevisiae)); test: affinity purification with mass spectrometry; tandem affinity purification of the endogenous complex from an S. cerevisiae strain with TAP-tagged Caf40; SDS-PAGE, Coomassie blue, bands identified by mass spectrometry
[3] = target: T1, Rcd1 (TAP-tagged, endogenous, S. pombe) (S. pombe (endogenous in S. pombe)); test: affinity purification with mass spectrometry; tandem affinity purification of the endogenous complex from an S. pombe strain with a C-terminal TAP tag on rcd1; SDS-PAGE, Coomassie blue, bands identified by mass spectrometry; Mmi1 interaction not sensitive to RNase treatment; remark: listed apart in the source

| Molecule | binding [3] | other results |
| --- | --- | --- |
| Not1 (endogenous, S. pombe) (from UniProt P87112 1-2100) |  | binding [1]: binds |
| Not4 ortholog (endogenous, S. pombe) |  | binding [1]: binds |
| Caf130 (endogenous, S. cerevisiae) (protein, UniProt P53280 1-1122) MTKKKAATNYAERQNLASEDSSGDSVHFKDFIPLQELLKDKNYVPSVENLEKILYNETMFNDQKICSNLLLEALIITLFTTISGKSALRLIQTSSLKERKSWAQSFENNSSSYASIVLSWKDNDILLLKFLRFLLANKTAPLQINRYNLPEYKLPLSFLIVSKITIPSILLNETYNLLKDYLYSITGRIESLISCSSTFDKPALVVRKILKDYNRMIECRNFYFWYSFNAENRVNLTFSDNISLLMENDEGNAGSGLDDSRFDHQKQPREAIMGRTINDQEQIYSFELNQDGTLEIPNVMEHSLLRHELLFKILNLTTVLTPLLELQFSTLCGLVDPLMQPTPNDKHIISIDFLFQLFLGLMSQSIKTSQEHNDHYDWKFYMCFNMQKIIDATMLRLNCFDFDILNSVNNTDNAVHWKTQLHRWLPHGLNTQDLELLYMIDILAVYTIYKLYEKIPIQLNPFLFSLISLWKNLSCVILLALEIDRIEEENGTYETPLMVRATIRGAAALRSVIATVLNGLVKNNDHDFKHESLNTFMSPYGRKLCHGALYADLRSHTASLLALGASIEDVTDLFADLQSGDRFDEDIRYMFDYECEDYDESFSESDHGGLDESVVNPTEKIASGSNNVFFRRRCNCIFNDDKLVAEDGANEAFGSTNSENVEGAMHNNRNAVHNATTATSDHVVTSPNPLSVRSRSTFEFDYSGEDWRDVPRDFNMYYSPSYSFIHEPKLDVIFSLTLRGATEKLNKEESILLVRSVASCVRNEQDQMILADLESNFSASINGDVEGEGNTKMSKIDNEDLRRTTPDDIYEIWSEESAFERMLNVNHDVAWRLMDEMLMCTGYRRILIWFLTHLELKHSLIYYVFELIMGLRGKPFSGEASDQDKKDDMIYEILKKKQKNEDASGLPFSRQGPIVLSDIETKMLLQEFFMNAAIFLSSKNNEEENEDGEKISLYSLGLVRLICYMVQTLIANDKFFFTKSECTFELQTLLMTWIGILPEAKDLFFKIKTRLAMEEEDSADTMQHEGRKNSDIEKKLNAKPASELNLKLLNLFPSKPANKDDSSPINTLRSFIADYSFDTQVNPPGRRVVFYDGKILPLPKADKPIPLHEYITLAELDVGDSE |  | binding [2]: binds |
| Mmi1 (meiotic mRNA interceptor 1; endogenous, S. pombe) (protein, UniProt O74958 1-488) MSNTNFSTSRSSKSIPELPNLEALRSLWPPPSLNESGDTRSVWTTHTGEPVASSVLSTSGSNNFSSPLKRPAPESHDAPIGRRLMVDDPRLIKHGKYDFSRHCTDYGHSYEWPYFRSLRRESMLYHTSGSYPESQPPYSSYSTDAPHYYHAGSESSAYYDSRSRLHGIQPPPKRRTLSPPPRRLADPVVVGSSRYVEEEVYRRPPYTLASEVPSSASAYQAGYSSYPVRSSPQLSHEDTRHGIASSGSTRYPFVPANTRASHSPSLLEPYAHSLPSSVAPVGAYPEKSSYLLSNSSNDSASRKEKPKARASTPPPLNFSRASEHRNEKGERISMINPRVVLDENGISHRSRYFIMLCDNETAIAHAKKTSIWAVKKDSSKRISDAYKKASVYFIFVAQQTYNALGYAQVVSDLNSTELPFWSDSSHAGGVRIKWIKTCNLFSAEISEIVSHMDHGSEARDGMEMMYDEGSRLCTLINYAIMKRIGRDR | binds |  |
| Not2 (endogenous, S. pombe) (protein, UniProt P87240 1-306) MSLANRLSHLNITGGNDFKASIGPSVGRQNEATNPWSSTSHSLENSAATVVNELQTTKEQKTPEQSTTANPLFPGNDFSDFNNHKSKLLGVITGKSTPSSQAEKSDTTNSKTGSTEELTETPADENAKQYMLESLLPIIRMEDSEMSTLQLGCDLAALGFDLAPVEEDRLISTNLFSPWAELNTKKPVSQPMFKLPACYKNVNPPPAISKIFQFSDETLFYIFYTMPRDVMQEAAAQELTNRNWRFHKELRVWLTPVPGMKPLQRTPQFERGYYMFFDPIHWKRIKKDFLLMYAALEDRAQSAVHS | binds |  |
| Not3 (endogenous, S. pombe) (protein, UniProt O13870 1-640) MSARKLQVEIEKTFKKVTDGIAIFDEVYEKLSASNSVSQKEKLEGDLKTQIKKLQRLRDQIKTWASSNDIKDKKALLENRRLIEAKMEEFKAVEREMKIKAFSKEGLSIASKLDPKEKEKQDTIQWISNAVEELERQAELIEAEAESLKATFKRGKKDLSKLSHLSELESRIERHKWHQDKLELIMRRLENSQISPEAVNDIQEDIMYYVECSQSEDFAEDENLYDELNLDEASASYDAERSGRSSSSSHSPSPSASSSSSSENLLQDKAEAEEKVSADASVQDIAEKESLDADKELATNDQEDDEEENQAETQKDGAISNNENMQSEVQTTNPSASTSAVTNITKPTLIQNPSTPLSVSNSKVASPETPNATHTAPKVEMRYASAAAAAAAALAKESPSHHYIMQQVRPETPNSPRLNSTVIQSKWDSLGHTASPKMQTQPVRSVSQSSATTETNVKPTKEENADVPVSSPDYLKDLVNALNTSKEQHKGAIDKEKLTEALNISCVYVPDATDAAKPQYYIPKDPYPVPHYYPQQPLPLFDSSEMTELVDPDTLFYMFYYRPGTYQQYIAGQELKKQSWRFHKKYTTWFQRHEEPKMITDEFESGSYRYFDFEGDWVQRKKADFRFTYQYLEDDDDWTR | binds |  |
| Caf1 (endogenous, S. pombe) (enzyme, UniProt O74856 1-335) MTAMNSNFSYPALGVDGISSQISPIRDVWSTNLQQEMNLIMSLIERYPVVSMDTEFPGVVARPLGVFKSSDDYHYQTLRANVDSLKIIQIGLALSDEEGNAPVEACTWQFNFTFNLQDDMYAPESIELLTKSGIDFKKHQEVGIEPADFAELLIGSGLVLQEEVTWITFHSGYDFAYLLKAMTQIPLPAEYEEFYKILCIYFPKNYDIKYIMKSVLNNSKGLQDIADDLQIHRIGPQHQAGSDALLTARIFFEIRSRYFDGSIDSRMLNQLYGLGSTGSVLWHNNSSTPQIQFRDLPGAHPSPTPSNAGIPTTLTNTSSAPNFANSTFRFPPRVV | binds |  |
| Ccr4 (endogenous, S. pombe) (enzyme, UniProt O74874 1-690) MFNPRYTQGTIYPGAHPGLLTPDHQHAAILSVQNSPALENSNISEHWKQQIALATQSRSFSSPHQRAHNAAALARSGGPGFSMNYNARTGAFTGGPNAAGLSSLGGKYNTSSTTTTLTTSTTLNTSSGTTLNSTSKTTTSSVAVDDQKSKSDSKKERRDWTCLDLGGIGLRNVSTDLFKFSFLTELYINHNNLTRLPPEIGKLKNLVILDASGNSIKTIPPELGLLTELREVLLFDNMISVIPAELGTLFQLKILGIEGNPLQDVYKNQIMESGTAGLIAALRDGCPVGPPPPERGWEKLVSDDDDDVNDNVSTSVRDLTAADSNKPSTTSKNLKFTIMSYNVLCERYATSTLYGYTPSWALSWSYRKDLIMQELGGYNADIICLQEVDVENYDTFFAPQMSLKGYKGVHFPKSRVRTMNEVERRIVDGCATFFKTSKYVMHEKMVIEYNQAPSLRRQDIKLTSNMYNRVMTKDNISVITLLENKENGSRLIVANCHIHWDPQFRDVKVIQVAMLMDEIAQVATKFRNMPSKIPSDQLKDERPTYPEYLKIPILICGDFNSVQGSGVYDFLSSGSISQNHEDFMNNDYGEYTVNGRSHAFNLKSAYGESEALSFTNYTPGFKGAIDHIWYTGNSLEVTGLLKGVDKDYLSGVVGFPNAHFPSDHICLLAEFKVKQEKTPLPSSKFNNDKK | binds |  |

Where two headings read alike, the source gives them in different places. These are yes or no findings as the source states them, for the method shown. Binding seen in cells or lysates may run through a third protein. These calls come from enrichment with a bait or labelling near it, and not all partners need be listed. Sequences can lack the tags named with a protein.
